Assay results reported in PMC7125926 (Antiviral Research, 2015).

Tests used:
IP-10 = assay: tissue or blood; type: cell-based; details: Mus musculus, 48 h, read-out: IP-10-EC50: 50% effective concentration determined by ELISA of IP-10
[1] = MTT assay of drug toxicity in mouse lung slices; type: cell-based
[2] = tested on: PR8 (H1N1) influenza virus; type: cell-based
influenza virus = type: in vivo, mice; details: Fig. S5
influenza A virus = details: ref An et al., 2014; cited from earlier work

**Q.** Which EC50 (IP-10) does the source give for C[S+]([O-])c1ccc(-c2nc(-c3ccncc3)c(-c3ccc(F)cc3)[nH]2)cc1 (centres unmarked) [SB203580] here?
**A.** 15.1 µM

**Q.** Which results are given for CCN(CC)CCOC(=O)C1(C2CCCCC2)CCCCC1 [Dicyclomine]?
**A.** CC50 at 48 h [1]: 65.2 µM; effect on virus replication / NA activity in lung slices (in words) [2]: inhibited neither; protection of mice from lethal doses of influenza virus infection (in words) (influenza virus): failed to protect mice; antiviral activity in MDCK cells (in words) (influenza A virus): known antiviral activity
